Assay [1] addresses Lig4 BRCT2 domain alone (S. pombe). The assay can be described thus: two-hybrid; Matchmaker system (Clontech), Lig4 and fragments as bait, Xrc4 as prey, AH109 strain; HIS3 and ADE2 reporters assessed on SD/-Ade/-His/-Leu/-Trp.
Assay [2] concerns the target Lig4 BRCT1 domain alone (S. pombe). The description is as above.

These are yes or no findings as the source states them, for the method shown.

B1: Xrc4 (two-hybrid prey) (protein, UniProt Q92361 1-264)
chain: MKFFLSLKDFKGEKFVLRSELDESSAFLCAISPTCRYVLRDEIPWKRLQRNVTSESLTDELIVDLLCGRSESKHTLQLVVLENLCRIYINYVDPFPLRIAWFELEQQALKDHEHFDVLWECSHSIKDLALASMAQQKNELQKLMAYTEQLQEECKSRERKLIMKFADMIKNARNNEDNEDNHHINYEDESDVGTDEQKQQEGVNSSAVSDTDESAVSDEFMQIKEEFPMKALSASPTADASPESAGEDDSHRRSSHESSETVSE
For the molecule B1, the binding result in assay [1] and in assay [2] was “no binding” each time.

Source of the values: paper PMC4455778.
